According to PubChem BioAssay AID2417 (National Center for Advancing Translational Sciences (NCATS), 2010):
About 4,300 (3.1%) of roughly 140,000 compounds were called active. Inconclusive results, whose numbers are uncertain, are shown with a selection of clear calls.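 Rule for the calls: active = readout at or below -70, meaning at least 70% loss of cells showing the perinucleolar compartment, a nuclear body marking cancer cells; inconclusive = readout between -30 and a set limit; inactive = the rest.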

Experiment: High Content Assay for Compounds that inhibit the Assembly of the Perinucleolar Compartment;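 note: plate controls were DMSO wells for no effect and camptothecin positive control wells for full effect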
Details: PC3M PTB-GFP, PNC prevalence imaging, 16 h; at 10 µM; active compounds read low
How it was run: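 PC3M cells stably expressing PTB-GFP, 750–1000 cells/well, treated 16 h at 37 °C with compound (23 nl of library stock), in duplicate. After paraformaldehyde fixation and Hoechst stain, imaged at 20x; PNC prevalence scored by image analysis.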
For `S=c1[nH]nc(-c2ccccc2)n1/N=C/c1c[nH]c2ccccc12`, the activity change (PNC), negative = inhibition was inconclusive: -51.3%. For `Cc1c(C#N)c(N)nc2c3c(sc12)NC(=O)CC3c1ccc(F)cc1` (stereo not given), the activity change (PNC), negative = inhibition was inconclusive: -71.4%. In the case of `O=C(OCCN1C(=O)c2cccc3c(N4CCOCC4)ccc(c23)C1=O)c1ccccc1Cl`, the activity change (PNC), negative = inhibition was inconclusive: -35.9%. With `COc1ccc(C(C[N+](=O)[O-])c2c(-c3ccccc3)cc3ccccn23)c(OC)c1` (stereo not given) the activity change (PNC), negative = inhibition was inconclusive: -34%. In the case of `Cc1ccc(C(c2nnnn2CC2CCCO2)N2CCN(c3cccc(C)c3C)CC2)cc1` (stereo not given), the activity change (PNC), negative = inhibition was inconclusive: -40.6%. With `CCNc1ccc(S(N)(=O)=O)cc1[N+](=O)[O-]` the activity change (PNC), negative = inhibition was inactive: 5.65%. In the case of `C=CCn1c(Cc2csc(N)n2)nnc1SCC(=O)OCC`, the activity change (PNC), negative = inhibition was inconclusive: -43.5%. For `COc1ccc(C(c2nnnn2Cc2cccs2)N2CCN(c3ccccc3F)CC2)cc1` (stereo not given), the activity change (PNC), negative = inhibition was inconclusive: -43.9%. For `Cc1nn(C)c(C)c1NC(=O)c1ccnn1C`, the activity change (PNC), negative = inhibition was inactive: -29.7%. In the case of `Cc1cccc(Oc2ncnc3onc(C)c23)c1`, the activity change (PNC), negative = inhibition was inconclusive: -51.2%. For `COc1ccc(CC(=O)OCCN(C)C)cc1`, the activity change (PNC), negative = inhibition was inactive: 7.42%. For `Cc1cc(C)cc(NS(=O)(=O)c2cnc(Cl)c(Cl)c2)c1`, the activity change (PNC), negative = inhibition was inconclusive: -56.7%. In the case of `CCOc1cc(C=C2C(=O)c3ccccc3C2=O)ccc1OCC(=O)Nc1ccc(C)cc1`, the activity change (PNC), negative = inhibition was inactive: 28.5%. With `Cc1cc(Oc2ccccc2)nc(SCC(=O)Nc2ccccc2)n1` the activity change (PNC), negative = inhibition was inconclusive: -46.9%. With `CCOC(=O)C1CCN(S(=O)(=O)c2ccc(OC)c(OC)c2)CC1` the activity change (PNC), negative = inhibition was inconclusive: -52.9%. For `O=C(OC1CCOC1=O)c1cccc(S(=O)(=O)Nc2cccc(Cl)c2)c1` (stereo not given), the activity change (PNC), negative = inhibition was inconclusive: -57.1%. With `CC1(C(=O)NCc2ccccn2)C=CCN1C(=O)c1ccccc1` (stereo not given) the activity change (PNC), negative = inhibition was active: -119%. With `Cc1cc(OCC(F)(F)C(F)(F)C(F)(F)C(F)(F)C(F)(F)C(F)F)nc(N)n1` the activity change (PNC), negative = inhibition was inactive: 22.8%. With `COc1ccc(-n2c(SCC(=O)Nc3cc(C)on3)nc3c(c2=O)SCC3)cc1` the activity change (PNC), negative = inhibition was inconclusive: -33.5%. For `CCCc1cc(=O)[nH]c(SCC(=O)c2c(N)n(C)c(=O)n(C)c2=O)n1`, the activity change (PNC), negative = inhibition was inactive: -10.5%. With `Cc1c(C(=O)Nc2nc3ccccc3[nH]2)oc2ccc(Br)cc12` the activity change (PNC), negative = inhibition was inactive: -19.5%. For `Cc1noc(C)c1C(=O)Nc1sc2c(c1C(N)=O)CCC2`, the activity change (PNC), negative = inhibition was inactive: -22.6%. For `O=C(Nc1ccncc1)C1CCCN(S(=O)(=O)c2cccc3cccnc23)C1` (stereo not given), the activity change (PNC), negative = inhibition was inconclusive: -44%. For `COc1ccccc1C1C(C(C)=O)=C(O)C(=O)N1CCc1ccccc1` (stereo not given), the activity change (PNC), negative = inhibition was inconclusive: -38.2%. For `CC(=O)Nc1ccc(SCC(=O)Nc2ccccc2Oc2ccccc2)cc1`, the activity change (PNC), negative = inhibition was inactive: -10.5%. For `c1ccc(CCc2ccccc2-c2nc(-c3cccnc3)no2)cc1`, the activity change (PNC), negative = inhibition was inactive: 34.2%. In the case of `COc1cc(NC(=S)NCc2ccc(S(N)(=O)=O)cc2)c(OC)cc1Cl`, the activity change (PNC), negative = inhibition was inconclusive: -40.1%. For `Cn1c(SCC(=O)Nc2cccc3ccccc23)nc(O)cc1=O`, the activity change (PNC), negative = inhibition was inconclusive: -49.5%. With `COCCn1c(=S)[nH]c2cc(OC)c(OC)cc2c1=O` the activity change (PNC), negative = inhibition was inconclusive: -52.4%. For `Cc1ccc(Nc2nc(CSc3nnc(-c4ccccc4C)n3C)cs2)cc1`, the activity change (PNC), negative = inhibition was active: -107%. With `CC(C)CC(=O)Nc1nnn(C)n1` the activity change (PNC), negative = inhibition was inactive: 0.908%. In the case of `O=C(O)c1cc(S(=O)(=O)Nc2ccc3c(c2)OCCO3)c(Cl)cc1Cl`, the activity change (PNC), negative = inhibition was inconclusive: -35.7%. With `Fc1ccc(Cn2c(-c3cscn3)nc3ccccc32)c(Cl)c1` the activity change (PNC), negative = inhibition was inactive: 16.3%. With `CC1=CCC2C(=O)N(CCc3c[nH]c4ccccc34)C(=O)C2C1` (stereo not given) the activity change (PNC), negative = inhibition was inactive: 8.3%. For `O=C(/C=C/NCc1ccc(F)cc1)c1ccccc1`, the activity change (PNC), negative = inhibition was inactive: -6.98%. For `CCOC(=O)/C(=C\Nc1ccccc1C(F)(F)F)Sc1ncc(C(F)(F)F)cc1Cl`, the activity change (PNC), negative = inhibition was inactive: 10.7%. For `Cc1occc1C(=O)NN1C(=O)C2C3CCC(O3)C2C1=O` (stereo not given), the activity change (PNC), negative = inhibition was active: -102%. With `Cc1ccccc1OCC1CN(CN2CCOCC2)C(=O)O1` (stereo not given) the activity change (PNC), negative = inhibition was active: -86.7%. With `CCOC(=O)c1oc2cccc(OC(C)=O)c2c1C` the activity change (PNC), negative = inhibition was inconclusive: -53.2%. In the case of `CC(C)n1c(N2CCN(C(=O)c3cccs3)CC2)nc2ccccc21`, the activity change (PNC), negative = inhibition was inconclusive: -43.7%. For `CC(Sc1nnnn1-c1ccccc1)C(=O)Nc1ccccc1-c1ccccc1` (stereo not given), the activity change (PNC), negative = inhibition was active: -134%. With `CNC(=O)c1nnc(Cc2ccc(Cl)cc2)o1` the activity change (PNC), negative = inhibition was inconclusive: -34.9%. With `O=C(N/N=C/c1ccccc1Cl)c1ccc(F)cc1` the activity change (PNC), negative = inhibition was inconclusive: -51.6%. With `CCc1ccc(N2C(=O)CC(NNc3nc4ccccc4s3)C2=O)cc1` (stereo not given) the activity change (PNC), negative = inhibition was inconclusive: -58.7%. With `O=S(=O)(NCCSc1ccc(Cl)cc1)c1ccc(F)cc1` the activity change (PNC), negative = inhibition was inactive: 70.2%. For `O=C(Cn1cccc1)N1CCc2ccccc21`, the activity change (PNC), negative = inhibition was inconclusive: -32%. For `COc1cc(OC)cc(C(=O)NC(=S)Nc2ccc3c4c(cccc24)CC3)c1`, the activity change (PNC), negative = inhibition was inactive: 33.2%. With `NC(=O)c1c(NC(=O)CN2CCCC2)sc2c1CCCC2` the activity change (PNC), negative = inhibition was inactive: -20.3%. With `CSc1nc(-c2ccccc2)nn1S(=O)(=O)c1ccccc1` the activity change (PNC), negative = inhibition was inconclusive: -42.1%. For `O=C(COc1ccccc1Cl)NC(=S)Nc1cccc(NC(=O)c2ccccc2Cl)c1`, the activity change (PNC), negative = inhibition was inactive: 1.43%. For `Cc1ccccc1C(=O)Nc1c2c(nc3ccccc13)CCCC2`, the activity change (PNC), negative = inhibition was inconclusive: -30.3%. In the case of `COc1ccc2nc(SCC(=O)NC3CCCc4ccccc43)[nH]c2c1` (stereo not given), the activity change (PNC), negative = inhibition was inconclusive: -31.8%. For `C=CCn1c(N)c(C(=O)OC(C)CC)c2nc3ccccc3nc21` (stereo not given), the activity change (PNC), negative = inhibition was inconclusive: -43.8%. For `COn1c(SCC(N)=O)nc2ccccc2c1=O`, the activity change (PNC), negative = inhibition was inconclusive: -50.5%. For `CC(=O)N1CCC(N(CCN2CCOCC2)C(=S)Nc2ccccc2C)CC1`, the activity change (PNC), negative = inhibition was active: -112%. With `Nc1ccc2c(c1)C/C(=C/c1ccco1)C2=O` the activity change (PNC), negative = inhibition was inactive: 10.9%. In the case of `COc1ccc(OC)c(CNC(=O)C2CCN(S(=O)(=O)N3CCCC3)CC2)c1`, the activity change (PNC), negative = inhibition was inactive: 21.7%. For `CCOc1ccc(-n2c(N)c(C(=O)NCc3ccco3)sc2=S)cc1`, the activity change (PNC), negative = inhibition was active: -85.6%. With `COc1ccc(F)c(C2C(C#N)=C(N)Oc3n[nH]c(C(C)(C)C)c32)c1` (stereo not given) the activity change (PNC), negative = inhibition was inconclusive: -51%. With `CCC(C)OC(=O)c1cc(C)nc2c(Br)cc(Br)cc12` (stereo not given) the activity change (PNC), negative = inhibition was active: -100%.
